Measured values: PubChem BioAssay AID2685 (National Center for Advancing Translational Sciences (NCATS), 2010)
This is one part of the list. These are further read-outs of the screen, such as a control signal, another cell line or another target. No call is given for them. The list favours compounds with an active or inconclusive main result. The note in brackets gives the kind of curve behind each potency; many fits are weak.

Assay: qHTS Assay for Lipid Storage Modulators in Drosophila S3 Cells;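 as to cell number change: cells counted by Cell Tracker Red CMTPX staining in the red channel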
Conditions: BODIPY lipid droplet fluorescence, 18-24 h; for cell number change: measured here: cell count max response, cells fed with added oleic acid
In short: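 Laser-scanning cytometry quantifies lipid droplet accumulation (500–530 nm total intensity; droplet/cell object ratio) in oleic acid-fed (400 uM added) Drosophila S3 cells treated with a concentration series. 20 uM Triacsin C defined 100% inhibition.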

[1] = measured here: cell number channel AC50, cells fed with added oleic acid
[2] = measured here: lipid fluorescence (Fed channel) AC50, cells fed with added oleic acid

Row | SMILES | cell number change [%] | AC50 [1] | AC50 [2]
1 | O=C(NCCCN1CCCCC1)c1ccc2c(c1)NC(=O)C(N1CCCCC1)S2 (centres undefined) | -1.39 | 3.66 µM [falling, single point] | –
2 | CCOc1ccc(NC(=O)CN2C(=O)CSc3ccc(S(=O)(=O)N4CCOCC4)cc32)cc1 | 7.91 | – | 6.51 µM [rising, single point]
3 | CC1C[N+](=C2C=C(N3CCOCC3)CC(C)(C)C2)CC(C)O1 (centres undefined) | 0.0823 | – | 0.731 µM [falling, partial curve, poor fit]
4 | O=C1CCC(=O)N1OCCCOc1ccc2c(c1)CCC2 | 15.8 | – | 16.4 µM [rising, single point]
5 | N#Cc1c(NC(=O)c2ccc([N+](=O)[O-])o2)sc2c1CCC2 | 3.42 | – | –
6 | CN(CCC#N)C(=S)Nc1ccc(Oc2ccccc2)cc1 | -26.8 | – | 5.8 µM [rising, single point]
7 | O=C(c1cc(-c2cccs2)on1)N1CCN(C(c2ccccc2)c2ccccc2)CC1 | -10.7 | – | –
8 | COc1ccc(NC(=O)CCS(=O)(=O)c2ccccc2Cl)cc1S(=O)(=O)Nc1ccc(Cl)cc1 | -5.41 | 2.06 µM [falling, partial curve, poor fit] | –
9 | COC(=O)c1c(CSc2ccc(Cl)cc2)noc1C(=O)NCc1ccco1 | -13.5 | – | –
10 | O=C(O)/C=C/C(=O)N1CCN(S(=O)(=O)c2cccc(C(F)(F)F)c2)CC1 | 5.54 | 1.16 µM [falling, single point] | 1.16 µM [falling, single point]
11 | Cc1ccc(OCCn2ccnc2)c([N+](=O)[O-])c1 | -1.31 | – | –
12 | N#CC1=C(Nc2ccccc2)SC=C(c2ccccc2)N=C1N1CCOCC1 | 132 | 9.2 µM [rising, partial curve] | 6.51 µM [rising, partial curve]
13 | CC(C)(C)OC(=O)N[C@H](C(=O)OC(C)(C)C)c1ccc2c(c1)OCO2 | 14.3 | – | –
14 | COc1ccc(-c2nnc(SCC(=O)NC3CC3)o2)cc1 | -4.64 | – | 23.1 µM [falling, partial curve, poor fit]
15 | Cc1ccc2c(c1)nnn2C1CCN(S(=O)(=O)c2ccc(C(=O)N3C(C)CCCC3C)cc2)CC1 (centres undefined) | -18.3 | – | 29.1 µM [falling, single point]
16 | O=C(COC(=O)c1ccccc1SCC(=O)N1CCCC1)Nc1ccccc1OC(F)F | – | – | 6.51 µM [rising, partial curve]
17 | CC(=O)N(/N=C/c1ccc([N+](=O)[O-])o1)c1nc2ccccc2c(=O)n1-c1ccccc1 | -37.7 | 0.517 µM [falling, full curve] | 0.651 µM [falling, full curve]
18 | O=C(c1ccc2c(=O)n(Cc3ccccc3Cl)c(=S)[nH]c2c1)N1CCCC1 | -0.943 | – | –
19 | Cc1ccc(C(=O)NNc2c3ccccc3nc3ccccc23)cc1 | -39.8 | 4.11 µM [falling, partial curve] | 29.1 µM [falling, single point]
20 | CCN(CC)C(=O)Cn1cnc2sc(C(=O)Nc3cc(OC)c(OC)c(OC)c3)c(C)c2c1=O | 58.1 | 14.6 µM [rising, partial curve] | –

Row | SMILES | cell number change [%] | AC50 [1] | AC50 [2]
21 | CCCc1cc(=O)n2[nH]c(NCc3ccccc3F)nc2n1 | -24.6 | 0.731 µM [falling, full curve] | 5.17 µM [falling, full curve]
22 | O=c1cc(OCc2ccccc2)cc[nH]1 | -40.6 | 16.4 µM [falling, single point] | –
23 | CC12CCC(C(N)=O)(C1Br)C2(C)C (centres undefined) | 1.79 | – | –
24 | Cc1ccc(CC(=O)N/N=C/c2ccc(OC(=O)c3ccc([N+](=O)[O-])cc3)cc2)cc1 | 19.1 | 0.731 µM [falling, single point] | 1.03 µM [falling, single point]
25 | Cc1ccc(-c2cc(Cc3ccccc3)c(=O)[nH]n2)cc1 | 24.5 | – | –
26 | O=C(c1ccc(Br)cc1)N(C1=NCCCCS1)c1ccccc1 | 12.5 | – | 0.0731 µM [falling, full curve, poor fit]
27 | O=C(NCC(=O)N(c1ccc(Cl)cc1)C(C(=O)NC1CCCC1)c1cccnc1)c1ccco1 (centres undefined) | -3.81 | – | 0.206 µM [rising, single point]
28 | Cc1cccc(NC(=O)NCC2CC2)c1 | 18.6 | – | 20.6 µM [rising, single point]
29 | Cc1cc(C[n+]2ccccc2)c2nsnc2c1 | -9.59 | – | 7.31 µM [falling, partial curve, poor fit]
30 | CCc1nnc(NC(=O)c2sc3nc4c(cc3c2N)CCCCC4)s1 | -26 | – | 25.9 µM [falling, single point]
31 | COc1ccc(Br)cc1CN1CCN(Cc2c[nH]c3ccccc23)CC1 | -21.9 | – | 29.1 µM [falling, single point]
32 | CCCOc1ccc(C2C3=C(CCCC3=O)N(CC(=O)O)C3=C2C(=O)CCC3)cc1OCC | 5.11 | – | 29.1 µM [rising, single point]
33 | O=C(c1ccc2c(c1)OCO2)C1CCCN(Cc2ccccc2OC(F)F)C1 (centres undefined) | 0.99 | 6.51 µM [rising, single point] | –
34 | COCCOc1cc(NC(=O)c2cccc(OC)c2)c(Cl)cc1Cl | 30.4 | 29.1 µM [rising, single point] | 29.1 µM [rising, single point]
35 | O=C(Nc1ccc2c(c1)OCO2)c1cnn2c1NC(c1ccco1)CC2C(F)(F)F (centres undefined) | -5.37 | – | 0.82 µM [rising, partial curve, poor fit]
36 | Cc1nn(C)c(C)c1C(=O)NN | -21.6 | – | 29.1 µM [falling, single point]
37 | COc1ccc(-c2nn(-c3ccccc3)cc2/C=C/C(=O)OCC(=O)Nc2ccccc2C#N)cc1 | 74.2 | 20.6 µM [rising, partial curve] | 29.1 µM [rising, single point]
38 | CC(C(=O)Nc1ccc2c(c1)OCCO2)N(C)CC(=O)Nc1ccccc1Br (centres undefined) | – | 0.366 µM [falling, single point] | 29.1 µM [falling, single point]
39 | Cc1ccc(C(C(=O)NCC2CCCO2)N(C(=O)c2snc(C(N)=O)c2N)c2ccc3c(c2)OCCO3)cc1 (centres undefined) | -13.5 | 6.51 µM [falling, single point] | –
40 | CCc1nn2cc(C(=O)c3ccccc3O)cnc2c1-c1ccc(F)cc1 | 23.4 | – | 4.61 µM [rising, full curve]

Row | SMILES | cell number change [%] | AC50 [1] | AC50 [2]
41 | O=C(CN1CCN(C/C=C/c2ccccc2)CC1)NC(=O)NC1CCCCC1 | -9.17 | 0.651 µM [falling, single point] | –
42 | CN1C(=O)CSC1=Nc1cccc(Cl)c1 | 9.84 | – | 0.0731 µM [rising, full curve, poor fit]
43 | O=C(CNC(=O)c1ccccc1F)OCn1nnc2ccccc2c1=O | 11.1 | – | 18.4 µM [falling, partial curve, poor fit]
44 | Oc1c(C(c2cccs2)N2CCOCC2)sc2ncnn12 (centres undefined) | -1.32 | – | 1.16 µM [falling, full curve]
45 | O=C(CSc1nc2ccccc2c(=O)n1CCCN1CCOCC1)Nc1ccc2c(c1)OCO2 | 136 | 29.1 µM [rising, partial curve] | 23.1 µM [rising, partial curve]
46 | O=C(CN1C(=O)S/C(=C\C=C\c2ccccc2)C1=O)N1CCCCC1 | 22 | 1.46 µM [rising, full curve, poor fit] | 1.3 µM [rising, full curve, poor fit]
47 | CCN(CC(=O)NCc1ccc(Cl)cc1)S(=O)(=O)c1ccc(NC(C)=O)cc1 | 57.9 | 29.1 µM [rising, single point] | –
48 | O=C1CCCc2nc(N3CCc4ccccc43)ncc21 | – | 3.66 µM [rising, single point] | 0.731 µM [rising, full curve]
49 | O=C(NCCCN1CCOCC1)c1cc(Cl)ccc1Cl | 7.77 | – | 0.731 µM [rising, partial curve, poor fit]
50 | COc1ccc(/C=N/N2CCOCC2)cc1COc1ccc(Cl)cc1 | -117 | 29.1 µM [falling, single point] | 29.1 µM [rising, single point]
51 | NC(=O)CSc1nnc(C2CC2)n1Cc1ccccc1 | -14.5 | 0.651 µM [falling, full curve, poor fit] | –
52 | CC(C)(C)c1ccc(S(=O)(=O)N2CCC(CO)(CC3CCCCO3)CC2)cc1 (centres undefined) | -13.1 | – | 0.58 µM [falling, full curve]
53 | CC(C)NC(=O)CN(C(=O)CCC(=O)Nc1nccs1)c1ccc2c(c1)OCO2 | -25.6 | 0.651 µM [falling, full curve, poor fit] | 29.1 µM [rising, single point]
54 | Cc1cc(C)c(C)c(/C=C(/C#N)C(N)=S)c1C | -33.3 | 0.164 µM [falling, full curve, poor fit] | –
55 | CN1C(=O)N(CC(=O)Nc2nccs2)C(=O)C12CCCCC2 | 42.2 | – | 5.8 µM [falling, single point]
56 | CC1CCCC(NC(=O)COC(=O)c2c[nH]c(=O)[nH]c2=O)C1C (centres undefined) | 13.5 | – | 4.61 µM [falling, full curve, poor fit]
57 | CCn1c(CN2CCN(c3ccc(OC)cc3)CC2)nc2cc(S(=O)(=O)N(C)C)ccc21 | 29.4 | – | 0.58 µM [falling, single point]
58 | O=C(N/N=C/c1ccccc1OCc1ccccc1)c1cccs1 | 22.9 | – | 3.66 µM [rising, partial curve, poor fit]
